Measured values reported in patent US20240383898A1.

Chains of the proteins cited; added tags and fusions are not shown.
UniProt P23458, whole entry: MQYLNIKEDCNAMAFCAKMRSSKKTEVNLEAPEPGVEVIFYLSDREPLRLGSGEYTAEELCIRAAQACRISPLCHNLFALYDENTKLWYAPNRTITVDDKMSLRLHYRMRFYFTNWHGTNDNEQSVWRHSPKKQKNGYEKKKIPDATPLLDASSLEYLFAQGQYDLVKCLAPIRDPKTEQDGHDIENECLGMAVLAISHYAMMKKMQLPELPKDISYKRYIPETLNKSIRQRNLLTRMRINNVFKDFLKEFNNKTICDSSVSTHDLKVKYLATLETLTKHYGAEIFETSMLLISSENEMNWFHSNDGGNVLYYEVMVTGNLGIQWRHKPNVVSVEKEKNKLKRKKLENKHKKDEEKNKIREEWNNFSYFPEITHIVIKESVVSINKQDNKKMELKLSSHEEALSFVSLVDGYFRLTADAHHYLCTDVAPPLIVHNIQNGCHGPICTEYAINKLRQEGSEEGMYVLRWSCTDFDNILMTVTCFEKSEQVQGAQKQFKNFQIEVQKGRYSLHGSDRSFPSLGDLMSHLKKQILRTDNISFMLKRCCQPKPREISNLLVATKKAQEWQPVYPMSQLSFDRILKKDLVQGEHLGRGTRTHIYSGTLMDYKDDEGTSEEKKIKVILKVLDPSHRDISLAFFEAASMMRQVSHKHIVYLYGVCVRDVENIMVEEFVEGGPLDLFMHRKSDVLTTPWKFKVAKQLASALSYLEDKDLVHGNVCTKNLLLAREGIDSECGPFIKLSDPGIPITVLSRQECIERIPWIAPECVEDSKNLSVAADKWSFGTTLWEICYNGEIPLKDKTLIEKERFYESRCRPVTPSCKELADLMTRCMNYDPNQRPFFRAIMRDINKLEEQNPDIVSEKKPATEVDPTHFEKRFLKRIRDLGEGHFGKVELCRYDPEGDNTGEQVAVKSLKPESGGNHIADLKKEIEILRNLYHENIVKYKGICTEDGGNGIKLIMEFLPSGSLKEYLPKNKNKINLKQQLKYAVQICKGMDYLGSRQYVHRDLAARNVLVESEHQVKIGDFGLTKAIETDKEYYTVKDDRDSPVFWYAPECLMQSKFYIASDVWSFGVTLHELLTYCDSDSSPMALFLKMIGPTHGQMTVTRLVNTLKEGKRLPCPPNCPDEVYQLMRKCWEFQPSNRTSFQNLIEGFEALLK
UniProt O60674, whole entry: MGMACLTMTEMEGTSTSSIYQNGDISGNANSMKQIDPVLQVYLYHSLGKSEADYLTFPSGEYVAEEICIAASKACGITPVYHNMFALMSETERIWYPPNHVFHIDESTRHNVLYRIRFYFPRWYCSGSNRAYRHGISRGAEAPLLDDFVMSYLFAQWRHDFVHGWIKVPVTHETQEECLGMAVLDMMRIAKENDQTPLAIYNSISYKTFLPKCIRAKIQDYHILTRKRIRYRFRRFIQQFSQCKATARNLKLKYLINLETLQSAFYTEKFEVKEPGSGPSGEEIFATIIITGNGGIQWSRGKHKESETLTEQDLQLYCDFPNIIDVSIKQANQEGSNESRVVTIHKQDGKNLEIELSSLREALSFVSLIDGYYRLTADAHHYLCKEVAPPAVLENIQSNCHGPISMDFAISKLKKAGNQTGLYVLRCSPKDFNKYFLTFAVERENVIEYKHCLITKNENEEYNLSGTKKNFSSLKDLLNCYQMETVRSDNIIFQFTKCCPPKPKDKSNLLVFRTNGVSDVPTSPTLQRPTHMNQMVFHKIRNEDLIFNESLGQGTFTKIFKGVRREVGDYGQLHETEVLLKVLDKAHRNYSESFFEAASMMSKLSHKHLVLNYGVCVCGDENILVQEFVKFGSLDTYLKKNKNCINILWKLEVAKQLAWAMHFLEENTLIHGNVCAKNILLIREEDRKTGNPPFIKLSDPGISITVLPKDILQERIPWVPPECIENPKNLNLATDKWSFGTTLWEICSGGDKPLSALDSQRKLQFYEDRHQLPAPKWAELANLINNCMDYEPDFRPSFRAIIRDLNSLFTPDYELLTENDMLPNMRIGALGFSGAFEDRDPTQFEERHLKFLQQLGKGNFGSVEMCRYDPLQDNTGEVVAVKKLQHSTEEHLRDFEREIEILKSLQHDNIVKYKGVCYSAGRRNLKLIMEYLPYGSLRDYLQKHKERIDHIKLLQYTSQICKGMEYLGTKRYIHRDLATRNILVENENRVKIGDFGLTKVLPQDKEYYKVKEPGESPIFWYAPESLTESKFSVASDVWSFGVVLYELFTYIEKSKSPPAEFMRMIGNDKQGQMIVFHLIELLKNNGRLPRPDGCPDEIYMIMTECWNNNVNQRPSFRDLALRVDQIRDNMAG

Columns and labels:
[1] = target: JAK1 (Homo sapiens, UniProt P23458); assay: In vitro activity test of JAK1 kinase (Caliper EZ Reader conversion assay); conditions: read-out: JAK1 IC50; enzyme activity, 10 concentrations from 1000 nM, 3-fold dilution
[2] = target: JAK2 (Homo sapiens, UniProt O60674); assay: In vitro activity test of JAK2 kinase (Caliper EZ Reader conversion assay); type: biochemical; conditions: read-out: JAK2 IC50; enzyme activity, 10 concentrations from 1000 nM, 3-fold dilution

pIC50 [1] | pIC50 [2] | SMILES
6.00 to 7.00 | 7.00 to 8.00 | N#CC1CCC(n2c(-c3ccc(F)c(F)c3)nc3cnc4[nH]ccc4c32)CC1 (stereo not shown)
> 8.00 | 6.00 to 7.00 | C[C@@H](O)c1nc2cnc3[nH]ccc3c2n1[C@@H]1CN(CCCC(F)(F)F)C[C@@H]1F

pIC50: −log10 of the molar value. The structures given here were assigned with low confidence; some may be wrong.
